# Test results taken from publication PMC9258208.
# The chains behind the UniProt entries cited, without tags or fusion partners.
# UniProt P84022: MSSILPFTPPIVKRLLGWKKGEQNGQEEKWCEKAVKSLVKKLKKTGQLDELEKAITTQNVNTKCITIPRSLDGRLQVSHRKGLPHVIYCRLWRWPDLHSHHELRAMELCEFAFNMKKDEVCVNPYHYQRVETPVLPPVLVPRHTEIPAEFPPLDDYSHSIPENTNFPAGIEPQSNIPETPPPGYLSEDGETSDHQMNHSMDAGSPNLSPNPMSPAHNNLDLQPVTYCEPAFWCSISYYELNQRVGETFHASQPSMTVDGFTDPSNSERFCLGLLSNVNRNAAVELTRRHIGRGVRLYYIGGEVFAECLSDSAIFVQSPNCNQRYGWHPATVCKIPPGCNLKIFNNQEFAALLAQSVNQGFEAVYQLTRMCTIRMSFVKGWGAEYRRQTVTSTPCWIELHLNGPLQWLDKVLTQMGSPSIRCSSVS
# UniProt Q9Y4A5: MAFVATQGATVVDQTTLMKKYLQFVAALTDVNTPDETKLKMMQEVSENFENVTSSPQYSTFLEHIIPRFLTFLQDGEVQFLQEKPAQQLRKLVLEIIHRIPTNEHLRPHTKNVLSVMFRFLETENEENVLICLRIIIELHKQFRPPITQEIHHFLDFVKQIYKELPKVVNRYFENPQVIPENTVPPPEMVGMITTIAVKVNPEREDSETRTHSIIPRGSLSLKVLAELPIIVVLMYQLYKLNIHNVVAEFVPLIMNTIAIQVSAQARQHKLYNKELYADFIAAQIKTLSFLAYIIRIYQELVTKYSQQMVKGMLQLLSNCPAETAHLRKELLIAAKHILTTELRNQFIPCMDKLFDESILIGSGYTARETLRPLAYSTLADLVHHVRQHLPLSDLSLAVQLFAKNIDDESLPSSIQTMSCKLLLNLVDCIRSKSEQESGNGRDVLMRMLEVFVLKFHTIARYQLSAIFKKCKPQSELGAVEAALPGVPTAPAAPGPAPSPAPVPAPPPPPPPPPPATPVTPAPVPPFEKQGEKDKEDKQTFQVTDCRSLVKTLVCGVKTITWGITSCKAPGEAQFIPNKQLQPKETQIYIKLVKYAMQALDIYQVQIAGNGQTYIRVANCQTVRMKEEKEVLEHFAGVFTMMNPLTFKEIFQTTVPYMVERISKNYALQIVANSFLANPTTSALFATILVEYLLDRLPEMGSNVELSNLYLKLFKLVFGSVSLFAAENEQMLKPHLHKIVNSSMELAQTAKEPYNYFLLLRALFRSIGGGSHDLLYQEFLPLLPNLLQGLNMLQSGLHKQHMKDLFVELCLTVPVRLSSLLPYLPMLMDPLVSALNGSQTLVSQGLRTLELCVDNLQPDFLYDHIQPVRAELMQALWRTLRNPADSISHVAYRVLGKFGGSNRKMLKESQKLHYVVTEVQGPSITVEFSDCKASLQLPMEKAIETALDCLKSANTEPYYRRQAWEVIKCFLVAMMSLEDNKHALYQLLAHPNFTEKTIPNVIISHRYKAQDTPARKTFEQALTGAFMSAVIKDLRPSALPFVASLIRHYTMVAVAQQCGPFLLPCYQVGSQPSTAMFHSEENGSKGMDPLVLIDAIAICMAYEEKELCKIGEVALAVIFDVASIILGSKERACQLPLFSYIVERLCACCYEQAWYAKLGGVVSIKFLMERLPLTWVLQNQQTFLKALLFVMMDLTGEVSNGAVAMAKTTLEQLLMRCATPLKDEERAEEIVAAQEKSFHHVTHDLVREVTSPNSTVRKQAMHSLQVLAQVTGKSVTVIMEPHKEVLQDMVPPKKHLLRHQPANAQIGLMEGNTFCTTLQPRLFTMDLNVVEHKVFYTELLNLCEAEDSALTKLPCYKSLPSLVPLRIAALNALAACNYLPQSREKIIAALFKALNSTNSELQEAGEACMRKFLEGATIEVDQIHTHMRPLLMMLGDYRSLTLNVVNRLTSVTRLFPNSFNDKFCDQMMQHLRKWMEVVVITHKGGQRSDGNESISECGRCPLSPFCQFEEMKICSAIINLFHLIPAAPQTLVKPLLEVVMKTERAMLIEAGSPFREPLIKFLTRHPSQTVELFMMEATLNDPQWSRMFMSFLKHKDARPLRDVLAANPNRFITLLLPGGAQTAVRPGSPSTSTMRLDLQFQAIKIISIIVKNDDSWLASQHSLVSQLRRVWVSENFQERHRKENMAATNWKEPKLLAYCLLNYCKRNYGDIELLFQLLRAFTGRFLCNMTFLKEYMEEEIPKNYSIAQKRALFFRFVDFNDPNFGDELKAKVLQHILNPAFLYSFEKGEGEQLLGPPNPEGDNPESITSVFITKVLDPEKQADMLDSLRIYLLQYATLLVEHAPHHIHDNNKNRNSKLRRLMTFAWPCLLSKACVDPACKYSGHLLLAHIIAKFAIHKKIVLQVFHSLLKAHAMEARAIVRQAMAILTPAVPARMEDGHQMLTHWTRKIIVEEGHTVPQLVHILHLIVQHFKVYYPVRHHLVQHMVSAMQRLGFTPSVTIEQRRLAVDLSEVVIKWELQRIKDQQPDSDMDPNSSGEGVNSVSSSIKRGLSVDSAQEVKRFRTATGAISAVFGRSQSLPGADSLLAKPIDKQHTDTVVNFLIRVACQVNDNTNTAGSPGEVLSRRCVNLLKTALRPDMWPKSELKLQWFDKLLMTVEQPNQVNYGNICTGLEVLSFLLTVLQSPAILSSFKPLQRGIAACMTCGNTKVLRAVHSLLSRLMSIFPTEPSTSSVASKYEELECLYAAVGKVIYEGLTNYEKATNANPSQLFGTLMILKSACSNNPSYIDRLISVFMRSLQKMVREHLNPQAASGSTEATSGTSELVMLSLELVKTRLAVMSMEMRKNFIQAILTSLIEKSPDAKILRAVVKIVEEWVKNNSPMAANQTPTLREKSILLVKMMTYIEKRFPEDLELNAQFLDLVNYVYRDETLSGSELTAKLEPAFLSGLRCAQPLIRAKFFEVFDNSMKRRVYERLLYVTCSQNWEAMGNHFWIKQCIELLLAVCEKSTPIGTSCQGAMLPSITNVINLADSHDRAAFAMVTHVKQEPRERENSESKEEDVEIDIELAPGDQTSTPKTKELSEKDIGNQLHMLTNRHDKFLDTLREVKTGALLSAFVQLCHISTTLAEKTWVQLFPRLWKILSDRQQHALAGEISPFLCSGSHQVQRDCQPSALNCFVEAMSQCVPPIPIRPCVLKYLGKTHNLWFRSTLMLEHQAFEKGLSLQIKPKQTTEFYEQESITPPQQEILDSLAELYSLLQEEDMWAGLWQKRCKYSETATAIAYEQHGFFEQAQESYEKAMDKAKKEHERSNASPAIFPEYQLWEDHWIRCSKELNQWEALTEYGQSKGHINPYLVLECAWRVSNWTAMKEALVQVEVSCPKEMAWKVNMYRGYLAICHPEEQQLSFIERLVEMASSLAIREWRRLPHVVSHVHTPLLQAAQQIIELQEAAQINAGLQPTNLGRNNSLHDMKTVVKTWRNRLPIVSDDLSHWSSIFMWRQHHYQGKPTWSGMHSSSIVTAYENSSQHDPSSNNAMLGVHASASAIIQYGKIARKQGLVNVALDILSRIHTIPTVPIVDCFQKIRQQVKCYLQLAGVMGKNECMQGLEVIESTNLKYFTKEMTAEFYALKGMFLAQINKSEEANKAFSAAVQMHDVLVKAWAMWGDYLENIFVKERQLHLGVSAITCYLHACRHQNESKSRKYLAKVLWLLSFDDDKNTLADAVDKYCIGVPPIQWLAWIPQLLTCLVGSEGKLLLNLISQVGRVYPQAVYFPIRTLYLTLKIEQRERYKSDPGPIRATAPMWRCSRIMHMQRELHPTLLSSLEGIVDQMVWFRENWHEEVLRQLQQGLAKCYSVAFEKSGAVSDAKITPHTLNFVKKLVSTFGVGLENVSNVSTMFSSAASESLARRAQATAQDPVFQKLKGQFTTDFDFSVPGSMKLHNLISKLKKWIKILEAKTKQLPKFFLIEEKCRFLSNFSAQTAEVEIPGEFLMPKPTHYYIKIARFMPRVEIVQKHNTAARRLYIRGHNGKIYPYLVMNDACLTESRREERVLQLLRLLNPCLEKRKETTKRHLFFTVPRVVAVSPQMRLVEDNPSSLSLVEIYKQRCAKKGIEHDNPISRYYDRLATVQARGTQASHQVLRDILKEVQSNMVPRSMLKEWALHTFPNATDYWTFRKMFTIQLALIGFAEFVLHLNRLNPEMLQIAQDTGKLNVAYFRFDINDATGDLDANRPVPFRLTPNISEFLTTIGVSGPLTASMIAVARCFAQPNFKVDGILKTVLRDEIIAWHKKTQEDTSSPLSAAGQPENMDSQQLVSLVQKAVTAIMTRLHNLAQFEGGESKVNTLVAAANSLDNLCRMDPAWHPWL
# UniProt P01106: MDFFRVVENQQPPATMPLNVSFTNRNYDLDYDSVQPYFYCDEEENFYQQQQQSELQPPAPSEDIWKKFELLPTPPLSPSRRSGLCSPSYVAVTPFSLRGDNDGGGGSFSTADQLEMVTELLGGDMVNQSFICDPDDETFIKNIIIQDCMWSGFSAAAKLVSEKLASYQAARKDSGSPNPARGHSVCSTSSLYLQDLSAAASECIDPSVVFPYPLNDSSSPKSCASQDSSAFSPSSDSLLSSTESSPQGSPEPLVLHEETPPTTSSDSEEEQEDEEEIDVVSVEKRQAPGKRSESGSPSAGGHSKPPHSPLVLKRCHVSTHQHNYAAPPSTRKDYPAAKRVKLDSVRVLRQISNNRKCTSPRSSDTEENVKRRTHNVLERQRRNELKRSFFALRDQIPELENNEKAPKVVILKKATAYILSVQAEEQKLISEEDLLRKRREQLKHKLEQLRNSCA
# No constants are given. Whether binding was seen depends on the method and setting. In cells and extracts the contact can be indirect. Some binding calls cover weakened binding; strength is not graded here.
# Columns and labels:
# [1] = target: Smad3 (human (endogenous in MDA-MB-231 and M10)) (UniProt P84022); assay: co-IP; endogenous proteins; MDA-MB-231 cells stably expressing Smyca, treated with 5 ng/ml TGF-β for 2 h
# [2] = target: TRRAP (human (endogenous in MDA-MB-231)) (UniProt Q9Y4A5); assay: co-IP; endogenous proteins; MDA-MB-231 cells stably expressing Smyca or Smyca shRNA; RIPA lysates
binding [1],binding [2],Substance
binds,–,c-Myc (from UniProt P01106 1-454) (other; other documents disagree on this pair)
–,binds,c-Myc (from UniProt P01106 1-454)
